Measurements reported in PubChem BioAssay AID504791 (Drosophila RNAi Screening Center, 2011).

Screen: 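Genes of the fly required for silencing by miRNA, siRNA or endo-siRNA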 (primary screen)
Cell system: Drosophila S2-derived reporter cells
Knock-down reagent: long dsRNA against Drosophila genes, about 150-250 ng dsRNA per well (siRNA assay); about 80-120 ng (miRNA assay)
Duration: about 5 days (siRNA assay); about 4 days (miRNA assay)
Challenge: copper sulfate induction of reporters: 25 µM (siRNA assay); 200 mM stated (miRNA assay), 1-2 days before reading
Measured: 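Dual luciferase assay: Renilla to firefly signal ratio in each well, scaled to the mean ratio of its plate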
Hit rule: 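First-pass picks had plate-scaled ratios over 1.5 for the siRNA assay, over 1.6 for the miRNA assay, or under 0.6; two distinct dsRNAs had to score alike on retest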
In all, the deposit lists about 23,000 reagents; shown is an unselected part of those with a known target gene and a result. In the full data, 199 (0.86%) were called active. 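Plate-scaled ratios behind the calls are not deposited; printed light signals are raw; many rows marked increased or decreased are still called inactive.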 Unmarked entries are inactive. Not given: the direction of the score.

| target gene | amplicon | stable siRNA reporter change | stable assay Renilla, run 1 (luminescence) | stable assay firefly, run 1 (luminescence) |
| --- | --- | --- | --- | --- |
| CG15715 | DRSC10216 | – | 7711 | 3.31e5 |
| CG34011 | DRSC00888 | – | 4771 | 2.98e5 |
| bdl (borderless) | DRSC00271 | – | 19155 | 6.66e5 |
| ppk29 (pickpocket 29) | DRSC04205 | – | 6379 | 5.88e5 |
| CG15036 | DRSC17968 | – | 4175 | 2.14e5 |
| CG34326 (retired record) | DRSC19165 | – | 5115 | 3.73e5 |
| CG10459 | DRSC05991 | – | 7006 | 4.66e5 |
| CG10459 | DRSC22092 | – | 11521 | 7.75e5 |
| Prosbeta4R2 (Proteasome beta4 subunit-related 2) | DRSC00503 | – | 11609 | 6.36e5 |
| CG14302 | DRSC14781 | – | 8206 | 3.55e5 |
| fest (wurstfest) | DRSC07349 | – | 5815 | 2.62e5 |
| NANS (N-acetylneuraminic acid synthase) | DRSC15743 | – | 6227 | 3.09e5 |
| Pburs (Partner of Bursicon) | DRSC02483 | – | 7462 | 3.46e5 |
| CG32295 | DRSC23259 | reporter ratio raised past the hit cutoff | 6895 | 3.09e5 |
| RpL32 (Ribosomal protein L32) | DRSC16835 | – | 5087 | 3.39e5 |
| hoip (hoi-polloi) | DRSC03546 | – | 7006 | 2.56e5 |
| Snx16 (Sorting nexin 16) | DRSC06984 | – | 6479 | 3.03e5 |
| Mtr3 | DRSC10953 | – | 8039 | 3.27e5 |
| htk (hat-trick) | DRSC20029 | – | 6159 | 2.96e5 |
| htk (hat-trick) | DRSC20031 | – | 6522 | 3.33e5 |
| Spn28B (Serpin 28B) | DRSC02982 | – | 4643 | 3.56e5 |
| tapas | DRSC05950 | – | 9810 | 3.27e5 |
| CG15034 | DRSC17966 | – | 5698 | 3.10e5 |
| Ptp52F (Protein tyrosine phosphatase 52F) | DRSC06717 | – | 6466 | 3.76e5 |
| CG12464 | DRSC06156 | – | 6100 | 2.90e5 |
| CG32075 | DRSC10622 | – | 5926 | 4.04e5 |
| Aldh (Aldehyde dehydrogenase) | DRSC02717 | – | 6719 | 3.71e5 |
| CG15099 | DRSC06528 | – | 10451 | 5.20e5 |
| Pp1-Y2 (Protein phosphatase 1, Y-linked 2) | DRSC21608 | – | 7743 | 3.98e5 |
| CG15747 | DRSC19713 | – | 8083 | 4.30e5 |
| Cmtr1 (Cap methyltransferase 1) | DRSC18400 | – | 6404 | 4.64e5 |
| Pdh (Photoreceptor dehydrogenase) | DRSC11249 | – | 8190 | 3.49e5 |
| CG9029 | DRSC03129 | – | 8006 | 4.21e5 |
| CG34426 | DRSC09977 | – | 6870 | 4.51e5 |
